Data on 18 compounds can be found in PubChem BioAssay AID493014 (National Center for Advancing Translational Sciences (NCATS), 2011).

The AC50 is the concentration at which the activity in the assay is half-maximal.

Each structure is given as a SMILES string. Some of the results follow. These are further read-outs of the screen, such as a control signal, another cell line or another target. No call is given for them. The list favours compounds with an active or inconclusive main result. Potencies come from curve fits of mixed quality, noted in brackets.

A short description of this test: qHTS Assay to Find Inhibitors of Chronic Active B-Cell Receptor Signaling. Conditions: ABC-DLBCL IkBa-CBG/CBR reporter, luminescence ratio (green luciferase fused to IkBa over red control in TMD8 lymphoma cells), 4 h. The procedure, abridged: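 Cell line TMD8 (human ABC DLBCL), stably expressing tet-inducible CBG68-IkBa fusion and CBR; IMDM/0.5% FBS; cpd up to 46 uM; dox induction, 4 h, 37C/5% CO2; dual luminescence; green/red ratio; MG132 control.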

[1] abbreviates: measured here: CBR red luminescence, cell number.
Setting [2] is: measured here: IkBa-CBG green luminescence.

In the case of `COc1ccc(C2C(C(=O)c3cccs3)=C(O)C(=O)N2Cc2cccnc2)cc1OC` (centres undefined), the AC50 under setting [1] is 35.5 µM [falling, single point].

For `NC(=O)C1(N2CCCCC2)CCN(c2nc(-c3ccc(Br)cc3)cs2)CC1`, under setting [1], the AC50 was 0.58 µM [falling, partial curve, poor fit].

For the compound `Cc1cc(C)cc(N2C(N)=NC(N)=NC2c2cccc(Cl)c2)c1` (centres undefined), the AC50 under setting [2] is 35.5 µM [falling, partial curve, poor fit].

As for `O=C(N/N=C/C=C\c1ccccc1[N+](=O)[O-])c1cc(-c2ccc3ccccc3c2)n[nH]1`, under setting [1], the AC50 was 9.2 µM [rising, partial curve].

`OC(COc1cccc(OCC(O)CN2CCCC2)c1)CN1CCCC1` (centres undefined): under setting [1], the AC50 was 28.2 µM [falling, single point].

With `CCC(=O)c1ccc(N2CCN(C(=O)c3ccc(Br)cc3)CC2)c(F)c1`, the half-maximal activity concentration (AC50) under setting [1] was 35.5 µM [falling, single point].

On to `CN(C)CC/C=C1/c2ccccc2Sc2ccc(Cl)cc21`, for which the AC50 under setting [1] is 2.82 µM [falling, single point].

Regarding `Cc1c(CCC(=O)N2CCC(C(=O)NCCCCCC(=O)O)CC2)c(=O)oc2cc3oc4c(c3cc12)CCCC4`, the AC50 under setting [1] is 1.26 µM [rising, full curve, poor fit].

For the compound `Cn1c(C(=O)N[C@@H](Cc2ccccc2)C(=O)O)cc2cc(F)ccc21`, under setting [1], the AC50 was 0.708 µM [rising, partial curve, poor fit].

For `COc1ccc(CCNCC(O)COc2cccc(Br)c2)cc1` (centres undefined), the AC50 was 35.5 µM [rising, single point] under setting [1] and 35.5 µM [falling, partial curve, poor fit] under setting [2].

Consider `c1csc(CNc2ccc3c(c2)OCCO3)c1`, for which, under setting [1], the AC50 was 23.1 µM [falling, single point].

Turning to `O=C(Nc1ccccc1)Nc1ccc2ncoc2c1`, the AC50 under setting [1] was 11.2 µM [falling, partial curve].

Turning to `Cc1ccc(C(=O)NCC(=O)OC(C)C(=O)Nc2ccc(N(C)C)cc2)s1` (centres undefined), the AC50 under setting [1] was 31.6 µM [rising, single point].

For `COc1ccccc1Nc1nc2c(s1)CCC2`, under setting [1], the AC50 is 0.631 µM [rising, full curve, poor fit].

With `CCc1nc(C)ccc1OCC(=O)O`, the AC50 under setting [1] was 0.291 µM [falling, partial curve, poor fit].

Take `COC(=O)c1ccc(C(=O)N2CCCC(Nc3ccc(F)c(F)c3)C2)cc1` (centres undefined): the half-maximal activity concentration (AC50) under setting [1] was 2.82 µM [rising, full curve, poor fit].

Consider `CCCCNC(=O)Nc1cnn(CC)c1C(N)=O`, for which the AC50 under setting [1] is 18.4 µM [rising, single point].

`O=C(N/N=C/c1ccc(N2CCOCC2)cc1)c1cccs1`: the AC50 under setting [1] is 11.2 µM [falling, partial curve].
